{"source": "paper PMC4530954", "key": {"[1]": {"target": "Tlx3-W127G-Myc, point mutant in the Pbx interaction motif of Tlx3 (mouse) (UniProt O55144)", "assay": "co-IP; HEK293 triply transfected with Pbx3 (3xFLAG), a Tlx3-Myc construct and CBP; whole-cell lysate; IP anti-Myc and blot anti-CBP, or IP anti-CBP and blot anti-Myc; 75 mM NaCl, 6% glycerol, 1% NP-40, 4°C overnight"}, "[2]": {"target": "Tlx3ΔC-Myc, C-terminal deletion mutant of Tlx3 (amino acids 1–226) (mouse) (UniProt O55144)", "assay": "co-IP; HEK293 triply transfected with Pbx3 (3xFLAG), a Tlx3-Myc construct and CBP; whole-cell lysate; IP anti-Myc and blot anti-CBP, or IP anti-CBP and blot anti-Myc; 75 mM NaCl, 6% glycerol, 1% NP-40, 4°C overnight"}, "[3]": {"target": "Tlx3ΔHD-Myc, homeodomain deletion mutant of Tlx3 (lacks amino acids 166–226) (mouse) (UniProt O55144)", "assay": "co-IP; HEK293 triply transfected with Pbx3 (3xFLAG), a Tlx3-Myc construct and CBP; whole-cell lysate; IP anti-Myc and blot anti-CBP, or IP anti-CBP and blot anti-Myc; 75 mM NaCl, 6% glycerol, 1% NP-40, 4°C overnight"}, "[4]": {"target": "Tlx3-W127G-Myc, point mutant in the Pbx interaction motif of Tlx3 (mouse) (UniProt O55144)", "assay": "co-IP; HEK293 cotransfected with a Tlx3-Myc construct and CBP, no Pbx3; whole-cell lysate 40 h after transfection; IP anti-Myc and blot anti-CBP, or IP anti-CBP and blot anti-Myc; 75 mM NaCl, 6% glycerol, 1% NP-40, 4°C overnight"}}, "note": "No constants are given. Whether binding was seen depends on the method and setting. In cells and extracts the contact can be indirect. Some entries that bind do so weakly or less than the wild type.", "data": [{"substance": "CREB-binding protein (CBP), full length, from pRc/RSV-CBP (from UniProt P45481 1-2441)", "values": [{"measurement": "binding", "setting": "[1]", "value": "binds"}, {"measurement": "binding", "setting": "[2]", "value": "binds"}, {"measurement": "binding", "setting": "[3]", "value": "no binding"}, {"measurement": "binding", "setting": "[4]", "value": "binds weakly"}]}]}
